# Experimental data as given in the supplement of paper PMC8728848.
# The list shows a part of the results.
# B1: Thrombomodulin Extracellular (Mus musculus), P15306 (protein)
# chain: MLGIFFLGVLAPASLGLSALAKLQPTGSQCVEHECFALFQGPATFLDASQACQRLQGHLMTVRSSVAADVISLLLSQSSMDLGPWIGLQLPQGCDDPVHLGPLRGFQWVTGDNHTSYSRWARPNDQTAPLCGPLCVTVSTATEAAPGEPAWEEKPCETETQGFLCEFYFTASCRPLTVNTRDPEAAHISSTYNTPFGVSGADFQTLPVGSSAAVEPLGLELVCRAPPGTSEGHWAWEATGAWNCSVENGGCEYLCNRSTNEPRCLCPRDMDLQADGRSCARPVVQSCNELCEHFCVSNAEVPGSYSCMCETGYQLAADGHRCEDVDDCKQGPNPCPQLCVNTKGGFECFCYDGYELVDGECVELLDPCFGSNCEFQCQPVSPTDYRCICAPGFAPKPDEPHKCEMFCNETSCPADCDPNSPTVCECPEGFILDEGSVCTDIDECSQGECFTSECRNFPGSYECICGPDTALAGQISKDCDPIPVREDTKEEEGSGEPPVSPTPGSPTGPPSARPVHSGVLIGISIASLSLVVALLALLCHLRKKQGAARAELEYKCASSAKEVVLQHVRTDRTLQKF
# Experiments:
# Assay in all cases: glycan array binding signal (z-score within array); higher = stronger binding
# Conditions in all cases: glycan notation: IUPAC condensed, linker removed
# [1] = molecular target: Fuc(a1-2)Gal
# How it was run: (§1)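 Glycan array data came from 3228 arrays in the Consortium for Functional Glycomics database, and only arrays with an available protein sequence were kept. Glycan names were put into IUPAC-condensed notation, and columns mapping to the same glycan were averaged. The binding signal is a within-array Z-score, averaged across arrays of one protein sequence run at different concentrations or buffers and across linkers. A negative Z-score can be read as non-binding.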
# [2] = molecular target: Fuc(a1-2)Gal(b1-3)GalNAc
# How it was run: as §1
# [3] = molecular target: Fuc(a1-2)Gal(b1-3)GalNAc(a1-3)[Fuc(a1-2)]Gal(b1-4)Glc
# How it was run: as §1
# [4] = molecular target: Fuc(a1-2)Gal(b1-3)GalNAc(a1-3)[Fuc(a1-2)]Gal(b1-4)GlcNAc
# How it was run: as §1
# [5] = molecular target: Fuc(a1-2)Gal(b1-3)GalNAc(b1-3)Gal
# How it was run: as §1
# [6] = molecular target: Fuc(a1-2)Gal(b1-3)GalNAc(b1-3)Gal(a1-4)Gal(b1-4)Glc
# How it was run: as §1
# [7] = molecular target: Fuc(a1-2)Gal(b1-3)GalNAc(b1-4)[Neu5Ac(a2-3)]Gal(b1-4)Glc
# How it was run: as §1
# [8] = molecular target: Fuc(a1-2)Gal(b1-3)GlcNAc
# How it was run: as §1
# [9] = molecular target: Fuc(a1-2)Gal(b1-3)GlcNAc(b1-2)Man(a1-3)[Fuc(a1-2)Gal(b1-3)GlcNAc(b1-2)Man(a1-6)]Man(b1-4)GlcNAc(b1-4)GlcNAc
# How it was run: as §1
# [10] = molecular target: Fuc(a1-2)Gal(b1-3)GlcNAc(b1-2)Man(a1-3)[Fuc(a1-2)Gal(b1-3)GlcNAc(b1-2)Man(a1-6)]Man(b1-4)GlcNAc(b1-4)[Fuc(a1-6)]GlcNAc
# How it was run: as §1
# [11] = molecular target: Fuc(a1-2)Gal(b1-3)GlcNAc(b1-3)Gal(b1-4)Glc
# How it was run: as §1
# [12] = molecular target: Fuc(a1-2)Gal(b1-3)GlcNAc(b1-3)GalNAc
# How it was run: as §1
# [13] = molecular target: Fuc(a1-2)Gal(b1-3)GlcNAc(b1-3)[Fuc(a1-2)Gal(b1-3)GlcNAc(b1-6)]GalNAc
# How it was run: as §1
# [14] = molecular target: Fuc(a1-2)Gal(b1-3)GlcNAc(b1-3)[Gal(b1-4)GlcNAc(b1-6)]Gal(b1-4)Glc
# How it was run: as §1
# [15] = molecular target: Fuc(a1-2)Gal(b1-3)GlcNAc(b1-3)[Neu5Ac(a2-6)Gal(b1-4)GlcNAc(b1-6)]Gal(b1-4)Glc
# How it was run: as §1
# [16] = molecular target: Fuc(a1-2)Gal(b1-3)GlcNAc6S
# How it was run: as §1
# [17] = molecular target: Fuc(a1-2)Gal(b1-3)[Fuc(a1-4)]GlcNAc
# How it was run: as §1
# [18] = molecular target: Fuc(a1-2)Gal(b1-3)[Fuc(a1-4)]GlcNAc(b1-2)Man(a1-3)[Fuc(a1-2)Gal(b1-3)[Fuc(a1-4)]GlcNAc(b1-2)Man(a1-3)]Man(b1-4)GlcNAc(b1-4)GlcNAc
# How it was run: as §1
# [19] = molecular target: Fuc(a1-2)Gal(b1-3)[Fuc(a1-4)]GlcNAc(b1-2)Man(a1-3)[Fuc(a1-2)Gal(b1-3)[Fuc(a1-4)]GlcNAc(b1-2)Man(a1-6)]Man(b1-4)GlcNAc(b1-4)[Fuc(a1-6)]GlcNAc(b1-4)[Fuc(a1-6)]GlcNAc
# How it was run: as §1
# [20] = molecular target: Fuc(a1-2)Gal(b1-3)[Fuc(a1-4)]GlcNAc(b1-3)[Fuc(a1-3)[Gal(b1-4)]GlcNAc(b1-6)]Gal(b1-4)Glc
# How it was run: as §1
# [21] = molecular target: Fuc(a1-2)Gal(b1-3)[Fuc(a1-4)]GlcNAc(b1-3)[Gal(b1-4)GlcNAc(b1-6)]Gal(b1-4)Glc
# How it was run: as §1
# [22] = molecular target: Fuc(a1-2)Gal(b1-4)Glc
# How it was run: as §1
# [23] = molecular target: Fuc(a1-2)Gal(b1-4)Glc6S
# How it was run: as §1
# [24] = molecular target: Fuc(a1-2)Gal(b1-4)GlcNAc
# How it was run: as §1
# [25] = molecular target: Fuc(a1-2)Gal(b1-4)GlcNAc(b1-2)Man
# How it was run: as §1
# [26] = molecular target: Fuc(a1-2)Gal(b1-4)GlcNAc(b1-2)Man(a1-3)[Fuc(a1-2)Gal(b1-4)GlcNAc(b1-2)Man(a1-6)]Man(b1-4)GlcNAc(b1-4)GlcNAc
# How it was run: as §1
# [27] = molecular target: Fuc(a1-2)Gal(b1-4)GlcNAc(b1-2)Man(a1-3)[Fuc(a1-2)Gal(b1-4)GlcNAc(b1-2)Man(a1-6)]Man(b1-4)GlcNAc(b1-4)[Fuc(a1-6)]GlcNAc
# How it was run: as §1
# [28] = molecular target: Fuc(a1-2)Gal(b1-4)GlcNAc(b1-2)[Fuc(a1-2)Gal(b1-4)GlcNAc(b1-4)]Man(a1-3)[Fuc(a1-2)Gal(b1-4)GlcNAc(b1-2)Man(a1-6)]Man(b1-4)GlcNAc(b1-4)GlcNAc
# How it was run: as §1
# [29] = molecular target: Fuc(a1-2)Gal(b1-4)GlcNAc(b1-3)Gal(b1-4)GlcNAc
# How it was run: as §1
# [30] = molecular target: Fuc(a1-2)Gal(b1-4)GlcNAc(b1-3)Gal(b1-4)GlcNAc(b1-2)Man(a1-3)[Fuc(a1-2)Gal(b1-4)GlcNAc(b1-3)Gal(b1-4)GlcNAc(b1-2)Man(a1-6)]Man(b1-4)GlcNAc(b1-4)GlcNAc
# How it was run: as §1
binder,measurement,setting,value
B1,glycan array binding signal (z-score),[1],0.249
same,glycan array binding signal (z-score),[2],-0.717
same,glycan array binding signal (z-score),[3],0.599
same,glycan array binding signal (z-score),[4],0.681
same,glycan array binding signal (z-score),[5],-0.899
same,glycan array binding signal (z-score),[6],0.433
same,glycan array binding signal (z-score),[7],-0.952
same,glycan array binding signal (z-score),[8],-0.798
same,glycan array binding signal (z-score),[9],2.48
same,glycan array binding signal (z-score),[10],0.563
same,glycan array binding signal (z-score),[11],-0.964
same,glycan array binding signal (z-score),[12],0.214
same,glycan array binding signal (z-score),[13],-0.749
same,glycan array binding signal (z-score),[14],-0.09
same,glycan array binding signal (z-score),[15],-0.306
same,glycan array binding signal (z-score),[16],-1.7
same,glycan array binding signal (z-score),[17],1.09
same,glycan array binding signal (z-score),[18],-0.026
same,glycan array binding signal (z-score),[19],0.537
same,glycan array binding signal (z-score),[20],2.24
same,glycan array binding signal (z-score),[21],0.702
same,glycan array binding signal (z-score),[22],1.97
same,glycan array binding signal (z-score),[23],1.37
same,glycan array binding signal (z-score),[24],-0.429
same,glycan array binding signal (z-score),[25],-0.956
same,glycan array binding signal (z-score),[26],1.3
same,glycan array binding signal (z-score),[27],1.12
same,glycan array binding signal (z-score),[28],0.491
same,glycan array binding signal (z-score),[29],0.406
same,glycan array binding signal (z-score),[30],-0.535

# Rewritten with bars between the fields: entries from further up.
binder | measurement | setting | value
B1 | glycan array binding signal (z-score) | [4] | 0.681
same | glycan array binding signal (z-score) | [8] | -0.798
same | glycan array binding signal (z-score) | [18] | -0.026
same | glycan array binding signal (z-score) | [23] | 1.37
same | glycan array binding signal (z-score) | [29] | 0.406
